According to the supplement of paper PMC6411743:
± gives the standard deviation of the averaged measurements. Only a part is listed here, and it is no random draw.

Protein sequences, listed by entry. Tags and fused reporters are not part of them. Lines headed by an entry give the natural chain unless they say otherwise; changes in a name come on top.
UniProt Q9H0N5: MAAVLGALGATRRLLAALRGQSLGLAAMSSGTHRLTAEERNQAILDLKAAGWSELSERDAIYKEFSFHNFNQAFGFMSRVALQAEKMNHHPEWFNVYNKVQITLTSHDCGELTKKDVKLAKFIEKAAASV
UniProt Q93009, whole entry, looked up: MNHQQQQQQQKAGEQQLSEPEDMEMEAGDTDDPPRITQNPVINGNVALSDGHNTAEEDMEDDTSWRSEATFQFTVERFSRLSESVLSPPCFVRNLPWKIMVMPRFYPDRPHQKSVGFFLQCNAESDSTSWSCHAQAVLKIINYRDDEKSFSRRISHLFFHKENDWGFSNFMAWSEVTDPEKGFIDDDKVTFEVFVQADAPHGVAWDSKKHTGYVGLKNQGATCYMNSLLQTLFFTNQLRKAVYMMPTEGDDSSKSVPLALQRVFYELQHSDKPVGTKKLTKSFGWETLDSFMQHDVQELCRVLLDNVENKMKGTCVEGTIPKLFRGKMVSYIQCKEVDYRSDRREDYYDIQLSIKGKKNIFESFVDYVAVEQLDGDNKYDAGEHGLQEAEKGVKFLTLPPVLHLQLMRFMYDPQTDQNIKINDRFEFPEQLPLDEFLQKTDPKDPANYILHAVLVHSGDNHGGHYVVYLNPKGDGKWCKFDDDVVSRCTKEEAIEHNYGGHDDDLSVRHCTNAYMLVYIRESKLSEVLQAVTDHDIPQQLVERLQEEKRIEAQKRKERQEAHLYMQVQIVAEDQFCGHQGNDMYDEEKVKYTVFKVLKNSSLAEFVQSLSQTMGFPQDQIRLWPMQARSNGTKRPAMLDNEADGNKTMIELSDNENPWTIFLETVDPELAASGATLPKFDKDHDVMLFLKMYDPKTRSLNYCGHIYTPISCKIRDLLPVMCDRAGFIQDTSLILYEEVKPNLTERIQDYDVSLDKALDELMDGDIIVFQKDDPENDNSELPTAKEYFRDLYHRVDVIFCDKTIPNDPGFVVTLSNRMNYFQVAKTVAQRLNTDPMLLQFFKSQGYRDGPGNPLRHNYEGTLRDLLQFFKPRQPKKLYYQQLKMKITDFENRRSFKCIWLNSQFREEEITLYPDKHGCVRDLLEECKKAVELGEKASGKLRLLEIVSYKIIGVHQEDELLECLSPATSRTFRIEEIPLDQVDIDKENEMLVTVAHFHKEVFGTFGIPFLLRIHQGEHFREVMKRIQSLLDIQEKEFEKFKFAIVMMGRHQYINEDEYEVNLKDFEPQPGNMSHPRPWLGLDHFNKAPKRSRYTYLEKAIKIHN
UniProt Q15643: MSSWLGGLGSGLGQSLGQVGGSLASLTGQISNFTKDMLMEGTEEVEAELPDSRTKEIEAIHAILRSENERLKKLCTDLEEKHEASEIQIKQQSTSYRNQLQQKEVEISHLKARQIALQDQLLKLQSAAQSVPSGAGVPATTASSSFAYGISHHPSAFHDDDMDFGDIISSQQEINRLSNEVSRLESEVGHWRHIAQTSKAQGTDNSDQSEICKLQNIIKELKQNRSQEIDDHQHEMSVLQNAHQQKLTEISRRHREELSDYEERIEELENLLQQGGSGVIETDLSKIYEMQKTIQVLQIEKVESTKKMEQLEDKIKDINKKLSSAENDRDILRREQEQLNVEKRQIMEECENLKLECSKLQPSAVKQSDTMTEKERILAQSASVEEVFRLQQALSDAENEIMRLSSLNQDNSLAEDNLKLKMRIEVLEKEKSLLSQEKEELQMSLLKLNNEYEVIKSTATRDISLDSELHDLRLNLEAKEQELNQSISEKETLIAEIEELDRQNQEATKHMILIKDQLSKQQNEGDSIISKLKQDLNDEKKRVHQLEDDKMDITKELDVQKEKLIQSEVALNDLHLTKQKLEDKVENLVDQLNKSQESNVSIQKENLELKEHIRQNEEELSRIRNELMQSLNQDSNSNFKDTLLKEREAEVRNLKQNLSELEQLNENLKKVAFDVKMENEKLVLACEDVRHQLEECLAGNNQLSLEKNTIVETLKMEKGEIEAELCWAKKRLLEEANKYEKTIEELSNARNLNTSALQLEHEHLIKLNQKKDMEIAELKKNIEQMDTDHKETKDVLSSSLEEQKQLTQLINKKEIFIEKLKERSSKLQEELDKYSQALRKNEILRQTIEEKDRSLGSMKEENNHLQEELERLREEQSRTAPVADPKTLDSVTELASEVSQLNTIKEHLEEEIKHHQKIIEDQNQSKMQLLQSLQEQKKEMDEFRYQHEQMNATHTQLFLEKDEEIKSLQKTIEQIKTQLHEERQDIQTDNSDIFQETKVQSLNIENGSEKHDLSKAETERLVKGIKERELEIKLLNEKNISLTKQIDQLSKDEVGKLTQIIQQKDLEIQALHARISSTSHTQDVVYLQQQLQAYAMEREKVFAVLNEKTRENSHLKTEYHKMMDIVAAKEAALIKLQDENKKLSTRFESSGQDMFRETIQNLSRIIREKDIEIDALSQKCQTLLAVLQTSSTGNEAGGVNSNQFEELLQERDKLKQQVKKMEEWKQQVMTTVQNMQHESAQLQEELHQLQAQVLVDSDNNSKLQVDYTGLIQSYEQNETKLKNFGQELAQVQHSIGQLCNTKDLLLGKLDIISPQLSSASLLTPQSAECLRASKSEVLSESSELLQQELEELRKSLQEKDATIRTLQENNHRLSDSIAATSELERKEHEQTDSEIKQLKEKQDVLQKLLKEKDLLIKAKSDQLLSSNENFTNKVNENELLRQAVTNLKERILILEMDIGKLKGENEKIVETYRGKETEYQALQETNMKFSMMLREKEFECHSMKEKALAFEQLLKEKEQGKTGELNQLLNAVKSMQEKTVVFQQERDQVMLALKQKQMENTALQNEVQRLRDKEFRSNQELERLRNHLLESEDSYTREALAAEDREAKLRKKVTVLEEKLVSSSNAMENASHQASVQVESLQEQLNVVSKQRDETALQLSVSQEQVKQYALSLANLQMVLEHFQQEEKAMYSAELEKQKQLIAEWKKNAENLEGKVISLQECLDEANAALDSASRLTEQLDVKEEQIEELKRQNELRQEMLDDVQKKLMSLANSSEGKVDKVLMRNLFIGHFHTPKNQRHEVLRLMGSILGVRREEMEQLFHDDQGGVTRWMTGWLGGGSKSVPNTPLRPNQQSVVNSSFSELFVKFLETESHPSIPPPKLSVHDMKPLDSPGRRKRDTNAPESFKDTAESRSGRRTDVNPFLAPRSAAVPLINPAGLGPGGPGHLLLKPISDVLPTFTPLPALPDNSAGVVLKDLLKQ
UniProt Q9BXC9: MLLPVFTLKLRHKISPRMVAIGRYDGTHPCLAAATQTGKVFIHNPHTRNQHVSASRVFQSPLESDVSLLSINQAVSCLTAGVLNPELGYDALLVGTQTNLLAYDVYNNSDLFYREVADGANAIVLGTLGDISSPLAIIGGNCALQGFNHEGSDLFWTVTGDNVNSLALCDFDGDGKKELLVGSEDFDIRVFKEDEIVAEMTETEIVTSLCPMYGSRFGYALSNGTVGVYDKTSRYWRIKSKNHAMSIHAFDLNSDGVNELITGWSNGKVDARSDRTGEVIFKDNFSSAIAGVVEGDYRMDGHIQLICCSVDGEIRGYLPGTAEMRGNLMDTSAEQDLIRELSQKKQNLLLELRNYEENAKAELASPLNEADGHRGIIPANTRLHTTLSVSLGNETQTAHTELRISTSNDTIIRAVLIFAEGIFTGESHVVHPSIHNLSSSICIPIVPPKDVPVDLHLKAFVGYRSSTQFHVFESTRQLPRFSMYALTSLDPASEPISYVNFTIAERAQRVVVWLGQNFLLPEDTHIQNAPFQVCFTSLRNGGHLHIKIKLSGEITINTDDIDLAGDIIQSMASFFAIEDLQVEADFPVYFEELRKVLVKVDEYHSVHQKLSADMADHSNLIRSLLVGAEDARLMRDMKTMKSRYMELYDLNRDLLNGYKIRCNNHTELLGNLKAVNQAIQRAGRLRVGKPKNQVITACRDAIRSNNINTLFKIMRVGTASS
UniProt Q2VPK5: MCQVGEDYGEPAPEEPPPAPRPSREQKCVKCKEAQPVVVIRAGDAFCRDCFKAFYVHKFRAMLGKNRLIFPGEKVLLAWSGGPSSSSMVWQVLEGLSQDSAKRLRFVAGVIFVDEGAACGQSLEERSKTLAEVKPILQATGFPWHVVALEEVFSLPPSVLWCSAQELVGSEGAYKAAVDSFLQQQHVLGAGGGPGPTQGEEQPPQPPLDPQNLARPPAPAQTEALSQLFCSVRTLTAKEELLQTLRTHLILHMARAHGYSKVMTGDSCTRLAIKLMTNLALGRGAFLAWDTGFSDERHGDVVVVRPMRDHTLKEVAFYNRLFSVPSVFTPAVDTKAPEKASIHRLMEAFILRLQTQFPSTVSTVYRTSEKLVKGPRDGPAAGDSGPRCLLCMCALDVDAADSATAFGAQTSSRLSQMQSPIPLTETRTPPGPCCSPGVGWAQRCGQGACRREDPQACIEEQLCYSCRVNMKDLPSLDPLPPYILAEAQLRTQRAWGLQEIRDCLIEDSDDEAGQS
UniProt Q9UQB8: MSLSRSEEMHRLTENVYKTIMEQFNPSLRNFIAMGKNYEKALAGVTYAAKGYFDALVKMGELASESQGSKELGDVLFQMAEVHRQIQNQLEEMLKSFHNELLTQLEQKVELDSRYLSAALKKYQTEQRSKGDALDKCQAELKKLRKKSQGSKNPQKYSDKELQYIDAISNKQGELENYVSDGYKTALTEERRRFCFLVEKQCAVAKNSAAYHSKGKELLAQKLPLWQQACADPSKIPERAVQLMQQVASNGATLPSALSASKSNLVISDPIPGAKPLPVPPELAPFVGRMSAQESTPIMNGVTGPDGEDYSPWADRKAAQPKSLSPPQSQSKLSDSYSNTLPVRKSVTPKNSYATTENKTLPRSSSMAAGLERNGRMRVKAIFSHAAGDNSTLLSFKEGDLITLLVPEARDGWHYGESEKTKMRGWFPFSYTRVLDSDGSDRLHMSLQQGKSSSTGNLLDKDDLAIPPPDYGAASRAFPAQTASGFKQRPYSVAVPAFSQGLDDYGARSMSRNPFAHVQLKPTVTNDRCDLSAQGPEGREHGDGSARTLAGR
UniProt O14618: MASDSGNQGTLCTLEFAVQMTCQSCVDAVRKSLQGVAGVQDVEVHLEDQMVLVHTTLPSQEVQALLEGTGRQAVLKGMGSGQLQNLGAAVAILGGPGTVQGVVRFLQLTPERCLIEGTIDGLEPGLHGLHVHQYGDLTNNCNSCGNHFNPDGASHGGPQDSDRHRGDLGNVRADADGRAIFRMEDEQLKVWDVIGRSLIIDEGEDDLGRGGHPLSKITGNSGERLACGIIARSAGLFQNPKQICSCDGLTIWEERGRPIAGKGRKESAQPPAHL
UniProt Q96K21: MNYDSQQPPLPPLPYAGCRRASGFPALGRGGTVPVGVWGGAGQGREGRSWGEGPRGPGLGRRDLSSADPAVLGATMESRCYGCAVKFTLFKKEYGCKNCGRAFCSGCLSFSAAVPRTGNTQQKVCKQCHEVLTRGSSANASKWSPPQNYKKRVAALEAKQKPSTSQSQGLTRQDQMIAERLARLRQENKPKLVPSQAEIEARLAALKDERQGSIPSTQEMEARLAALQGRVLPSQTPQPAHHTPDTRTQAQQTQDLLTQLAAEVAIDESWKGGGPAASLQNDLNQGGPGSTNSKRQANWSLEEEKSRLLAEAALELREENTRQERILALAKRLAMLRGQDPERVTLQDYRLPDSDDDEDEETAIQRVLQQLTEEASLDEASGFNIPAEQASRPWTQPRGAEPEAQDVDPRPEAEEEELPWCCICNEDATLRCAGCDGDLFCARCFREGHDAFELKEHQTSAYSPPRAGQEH
UniProt P30260, whole entry: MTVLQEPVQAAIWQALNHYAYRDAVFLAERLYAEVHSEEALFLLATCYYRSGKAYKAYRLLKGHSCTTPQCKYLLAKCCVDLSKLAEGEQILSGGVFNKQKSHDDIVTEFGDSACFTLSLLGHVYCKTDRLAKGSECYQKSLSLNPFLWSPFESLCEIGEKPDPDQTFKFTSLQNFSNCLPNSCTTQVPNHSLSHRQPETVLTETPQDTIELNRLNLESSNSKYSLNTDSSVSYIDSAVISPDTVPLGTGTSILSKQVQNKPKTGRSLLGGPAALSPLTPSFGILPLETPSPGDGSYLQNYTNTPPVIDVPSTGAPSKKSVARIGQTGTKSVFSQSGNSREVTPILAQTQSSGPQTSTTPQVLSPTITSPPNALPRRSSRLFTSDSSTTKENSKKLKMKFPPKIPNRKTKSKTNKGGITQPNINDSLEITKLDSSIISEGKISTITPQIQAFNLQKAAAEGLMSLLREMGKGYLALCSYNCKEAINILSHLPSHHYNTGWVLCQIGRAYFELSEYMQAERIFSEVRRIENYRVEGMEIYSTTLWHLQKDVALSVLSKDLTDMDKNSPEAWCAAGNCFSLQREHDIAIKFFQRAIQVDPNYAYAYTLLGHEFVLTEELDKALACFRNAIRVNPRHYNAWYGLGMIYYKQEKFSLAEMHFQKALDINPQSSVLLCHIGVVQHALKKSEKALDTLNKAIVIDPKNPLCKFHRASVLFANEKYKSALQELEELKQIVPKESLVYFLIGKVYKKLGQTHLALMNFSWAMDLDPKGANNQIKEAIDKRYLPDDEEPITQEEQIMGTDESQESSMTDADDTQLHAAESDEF

Compound: Nc1ncnc2c1ncn2[C@@H]1O[C@H](COP(=O)(O)OP(=O)(O)OP(=O)(O)O)[C@@H](O)[C@H]1O [adenosine triphosphate]
Assay: NP40-soluble protein abundance relative to vehicle (solubility fold change) (ratio); higher = more soluble protein in presence of ATP
Method in brief: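 Data come from three independent experiments in which Dounce-homogenised Jurkat crude lysate was treated at eight concentrations from 0.1 to 10 mM. Treatment ran 10 min at room temperature and then 3 min at 37 °C, after which 0.8% NP40 and benzonase were added for 60 min at 4 °C before ultracentrifugation. The supernatant underwent TMT labelling and LC-MS/MS, and vsn-normalised intensities were expressed as fold change against the detergent-processed vehicle in each replicate.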

## H0YA52 and related entries (UniProt Q9H0N5)
concentration: 1mM
  NP40-soluble protein abundance: 0.994 ± 0.083
concentration: 2mM
  NP40-soluble protein abundance: 1 ± 0.045
concentration: 4mM
  NP40-soluble protein abundance: 1.02 ± 0.06
concentration: 6mM
  NP40-soluble protein abundance: 1.06 ± 0.1
concentration: 8mM
  NP40-soluble protein abundance: 1.07 ± 0.082
concentration: 10mM
  NP40-soluble protein abundance: 1.01 ± 0.13

## H3BQD1 and related entries (UniProt Q93009)
concentration: 1mM
  NP40-soluble protein abundance: 1.05 ± 0.11
concentration: 2mM
  NP40-soluble protein abundance: 1 ± 0.078
concentration: 4mM
  NP40-soluble protein abundance: 1 ± 0.077
concentration: 6mM
  NP40-soluble protein abundance: 0.971 ± 0.1
concentration: 8mM
  NP40-soluble protein abundance: 1.04 ± 0.054
concentration: 10mM
  NP40-soluble protein abundance: 1 ± 0.077

## H0YJI2 and related entries (UniProt Q15643)
concentration: 1mM
  NP40-soluble protein abundance: 0.974 ± 0.041
concentration: 2mM
  NP40-soluble protein abundance: 0.974 ± 0.045
concentration: 4mM
  NP40-soluble protein abundance: 0.958 ± 0.034
concentration: 6mM
  NP40-soluble protein abundance: 0.994 ± 0.042
concentration: 8mM
  NP40-soluble protein abundance: 0.942 ± 0.028
concentration: 10mM
  NP40-soluble protein abundance: 0.951 ± 0.018

## J3KNQ1 and related entries (UniProt Q6P2D0)
concentration: 1mM
  NP40-soluble protein abundance: 0.988 ± 0.073
concentration: 2mM
  NP40-soluble protein abundance: 0.999 ± 0.098
concentration: 4mM
  NP40-soluble protein abundance: 1.01 ± 0.088
concentration: 6mM
  NP40-soluble protein abundance: 1 ± 0.15
concentration: 8mM
  NP40-soluble protein abundance: 0.914 ± 0.033
concentration: 10mM
  NP40-soluble protein abundance: 1 ± 0.14

## H3BRL0 and related entries (UniProt Q9BXC9)
concentration: 1mM
  NP40-soluble protein abundance: 0.997 ± 0.094
concentration: 2mM
  NP40-soluble protein abundance: 0.952 ± 0.056
concentration: 4mM
  NP40-soluble protein abundance: 1.06 ± 0.044
concentration: 6mM
  NP40-soluble protein abundance: 1.01 ± 0.016
concentration: 8mM
  NP40-soluble protein abundance: 1.02 ± 0.03
concentration: 10mM
  NP40-soluble protein abundance: 0.974 ± 0.029

## H3BSW6 and related entries (UniProt Q2VPK5)
concentration: 1mM
  NP40-soluble protein abundance: 0.991 ± 0.074
concentration: 2mM
  NP40-soluble protein abundance: 1.04 ± 0.056
concentration: 4mM
  NP40-soluble protein abundance: 0.973 ± 0.05
concentration: 6mM
  NP40-soluble protein abundance: 0.968 ± 0.046
concentration: 8mM
  NP40-soluble protein abundance: 1.02 ± 0.072
concentration: 10mM
  NP40-soluble protein abundance: 1.02 ± 0.036

## I3L4C2 and related entries (UniProt Q9UQB8)
concentration: 1mM
  NP40-soluble protein abundance: 0.9602 ± 0.0035
concentration: 2mM
  NP40-soluble protein abundance: 0.93 ± 0.036
concentration: 4mM
  NP40-soluble protein abundance: 0.9393 ± 0.0064
concentration: 6mM
  NP40-soluble protein abundance: 0.959 ± 0.051
concentration: 8mM
  NP40-soluble protein abundance: 0.875 ± 0.05
concentration: 10mM
  NP40-soluble protein abundance: 0.918 ± 0.021

## J3KNF4 and related entries (UniProt O14618)
concentration: 1mM
  NP40-soluble protein abundance: 0.962 ± 0.012
concentration: 2mM
  NP40-soluble protein abundance: 0.944 ± 0.017
concentration: 4mM
  NP40-soluble protein abundance: 0.933 ± 0.04
concentration: 6mM
  NP40-soluble protein abundance: 0.975 ± 0.028
concentration: 8mM
  NP40-soluble protein abundance: 0.934 ± 0.079
concentration: 10mM
  NP40-soluble protein abundance: 0.92 ± 0.048

## K7EK07 and related entries (UniProt P84243+K7EK07)
concentration: 1mM
  NP40-soluble protein abundance: 0.817 ± 0.25
concentration: 2mM
  NP40-soluble protein abundance: 0.832 ± 0.13
concentration: 4mM
  NP40-soluble protein abundance: 0.827 ± 0.13
concentration: 6mM
  NP40-soluble protein abundance: 0.948 ± 0.12
concentration: 8mM
  NP40-soluble protein abundance: 0.956 ± 0.036
concentration: 10mM
  NP40-soluble protein abundance: 1.02 ± 0.065

## H3BLZ8 (UniProt Q92841)
concentration: 1mM
  NP40-soluble protein abundance: 1.09 ± 0.1
concentration: 2mM
  NP40-soluble protein abundance: 0.948 ± 0.2
concentration: 4mM
  NP40-soluble protein abundance: 1.23 ± 0.17
concentration: 6mM
  NP40-soluble protein abundance: 1.04 ± 0.23
concentration: 8mM
  NP40-soluble protein abundance: 1.24 ± 0.11
concentration: 10mM
  NP40-soluble protein abundance: 1.06 ± 0.2

## H3BRF9 and related entries (UniProt Q96K21)
concentration: 1mM
  NP40-soluble protein abundance: 0.904 ± 0.035
concentration: 2mM
  NP40-soluble protein abundance: 0.939 ± 0.019
concentration: 4mM
  NP40-soluble protein abundance: 0.944 ± 0.037
concentration: 6mM
  NP40-soluble protein abundance: 0.913 ± 0.037
concentration: 8mM
  NP40-soluble protein abundance: 0.888 ± 0.028
concentration: 10mM
  NP40-soluble protein abundance: 0.909 ± 0.032

## G5EA36 and related entries (UniProt P30260)
concentration: 1mM
  NP40-soluble protein abundance: 1.04 ± 0.04
concentration: 2mM
  NP40-soluble protein abundance: 0.984 ± 0.036
concentration: 4mM
  NP40-soluble protein abundance: 0.941 ± 0.042
concentration: 6mM
  NP40-soluble protein abundance: 0.993 ± 0.1
concentration: 8mM
  NP40-soluble protein abundance: 0.998 ± 0.082
concentration: 10mM
  NP40-soluble protein abundance: 0.974 ± 0.061

## H0Y4T4 and related entries (UniProt Q5SW79)
concentration: 1mM
  NP40-soluble protein abundance: 1.07 ± 0.048
concentration: 2mM
  NP40-soluble protein abundance: 1.09 ± 0.065
concentration: 4mM
  NP40-soluble protein abundance: 1.11 ± 0.055
concentration: 6mM
  NP40-soluble protein abundance: 1.19 ± 0.12
concentration: 8mM
  NP40-soluble protein abundance: 1.13 ± 0.05
concentration: 10mM
  NP40-soluble protein abundance: 1.18 ± 0.055

## K7ERW4 and related entries (UniProt Q6AI12)
concentration: 1mM
  NP40-soluble protein abundance: 0.961 ± 0.17
concentration: 2mM
  NP40-soluble protein abundance: 0.991 ± 0.21
concentration: 4mM
  NP40-soluble protein abundance: 0.964 ± 0.29
concentration: 6mM
  NP40-soluble protein abundance: 0.872 ± 0.26
concentration: 8mM
  NP40-soluble protein abundance: 0.925 ± 0.2
concentration: 10mM
  NP40-soluble protein abundance: 0.942 ± 0.25

## K7EJH8 and related entries (UniProt O43707)
concentration: 1mM
  NP40-soluble protein abundance: 0.841 ± 0.022
concentration: 2mM
  NP40-soluble protein abundance: 0.824 ± 0.025
concentration: 4mM
  NP40-soluble protein abundance: 0.814 ± 0.035
concentration: 6mM
  NP40-soluble protein abundance: 0.883 ± 0.05
concentration: 8mM
  NP40-soluble protein abundance: 0.87 ± 0.044
concentration: 10mM
  NP40-soluble protein abundance: 0.903 ± 0.046
